The results are deposited in PubChem (AID504749; NCATS, 2011).

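A panel of P. falciparum strains inside erythrocytes is exposed to compounds for three days, then a DNA-binding dye reports the amount of parasite DNA.
Each compound was titrated across a series from about 0.000037 to 29 µM.
The number is the fitted AC50, the concentration giving a half-maximal change in signal; a lower value means higher potency, whether the curve shows a decrease or an increase.
Calls follow the curve class and fit quality: every row here is inconclusive, covering signal-raising curves and weak, poorly fitted, partial or highest-dose-only inhibition curves.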

Values are in nM.
All entries here are filed as inconclusive.
These entries are mostly ones the record files as inconclusive; other results of the assay are not listed here.
Potencies fitted to partial, single-point or poorly fitting curves are rough.
Some entries filed as inconclusive have a full curve.

Compound	setting	Potency (nM)	curve
NC(=O)N/N=C/c1ccc([N+](=O)[O-])o1	CP250	17782	inhibitor, single point
NC(=O)N/N=C/c1ccc([N+](=O)[O-])o1	DIV17	19011	inhibitor, single point
NC(=O)N/N=C/c1ccc([N+](=O)[O-])o1	PC49	17782	inhibitor, single point
NC(=O)N/N=C/c1ccc([N+](=O)[O-])o1	C2A	7943	inhibitor, partial curve
NC(=O)N/N=C/c1ccc([N+](=O)[O-])o1	CP325	19011	inhibitor, partial curve, poor fit
NC(=O)N/N=C/c1ccc([N+](=O)[O-])o1	CP217	19952	inhibitor, single point
NC(=O)N/N=C/c1ccc([N+](=O)[O-])o1	DFO2036	17782	inhibitor, single point
NC(=O)N/N=C/c1ccc([N+](=O)[O-])o1	CP268	21331	inhibitor, partial curve, poor fit
NC(=O)N/N=C/c1ccc([N+](=O)[O-])o1	CP335	4256	inhibitor, full curve
NC(=O)N/N=C/c1ccc([N+](=O)[O-])o1	TAB113	11220	inhibitor, single point
NC(=O)N/N=C/c1ccc([N+](=O)[O-])o1	CP252	17782	inhibitor, single point
NC(=O)N/N=C/c1ccc([N+](=O)[O-])o1	CP262	16944	inhibitor, partial curve, poor fit
NC(=O)N/N=C/c1ccc([N+](=O)[O-])o1	ATS189	10000	inhibitor, single point
NC(=O)N/N=C/c1ccc([N+](=O)[O-])o1	PAD	12589	inhibitor, single point
NC(=O)N/N=C/c1ccc([N+](=O)[O-])o1	DIV30	13459	inhibitor, single point
NC(=O)N/N=C/c1ccc([N+](=O)[O-])o1	AS120	17782	inhibitor, single point
NC(=O)N/N=C/c1ccc([N+](=O)[O-])o1	CP201	9528	inhibitor, partial curve, poor fit
NC(=O)N/N=C/c1ccc([N+](=O)[O-])o1	DIV14	13459	inhibitor, single point
NC(=O)N/N=C/c1ccc([N+](=O)[O-])o1	ECU	15848	inhibitor, partial curve, poor fit
NC(=O)N/N=C/c1ccc([N+](=O)[O-])o1	P94_40	12589	inhibitor, single point
NC(=O)N/N=C/c1ccc([N+](=O)[O-])o1	CP286	10000	inhibitor, single point
NC(=O)N/N=C/c1ccc([N+](=O)[O-])o1	CP291	19011	inhibitor, single point
NC(=O)N/N=C/c1ccc([N+](=O)[O-])o1	PC26	15101	inhibitor, single point
NC(=O)N/N=C/c1ccc([N+](=O)[O-])o1	PC15	10000	inhibitor, partial curve
NC(=O)N/N=C/c1ccc([N+](=O)[O-])o1	AA1029	11220	inhibitor, single point
NC(=O)N/N=C/c1ccc([N+](=O)[O-])o1	TAB165	17782	inhibitor, single point
NC(=O)N/N=C/c1ccc([N+](=O)[O-])o1	ATS95	10000	inhibitor, single point

For reference, 3 entries once more:

| Compound | setting | Potency (nM) | curve |
|---|---|---|---|
| `NC(=O)N/N=C/c1ccc([N+](=O)[O-])o1` | CP286 | 10000 | inhibitor, single point |
| `NC(=O)N/N=C/c1ccc([N+](=O)[O-])o1` | TAB165 | 17782 | inhibitor, single point |
| `NC(=O)N/N=C/c1ccc([N+](=O)[O-])o1` | CP201 | 9528 | inhibitor, partial curve, poor fit |